Measured data: PubChem BioAssay AID602196 (INSERM, 2012)
Shown is a random part of about 23,000 reagents tested. 455 of them (2%) count as active. 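Active includes both protection and sensitisation; some change values fall well beyond the stated -50 to +50 range.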 A number with no mark means an inactive call. Not stated in the record: the amount of reagent.

- Aim: 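Knock-downs that protect lung cancer cells from cisplatin or sensitise them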
- Cell system: human A549 lung cancer cells
- Reagent: siRNA pair against human genes
- Duration: 48 h transfection before cisplatin; time from cisplatin to read-out not stated
- Conditions: cisplatin at a dose killing half of control-siRNA cells; exact dose and duration not given
- Measurement: 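Shift in cisplatin death relative to control siRNA, from -50 (all cells die) to +50 (no cells die); siRNAs harmful on their own scored 0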
- Scale: two-siRNA summed score (-2 to +2): higher = both siRNAs protect from cisplatin killing; -2 means both sensitise; mean protection from cisplatin (shift in death) and protection from cisplatin (shift in death), siRNA C and protection from cisplatin (shift in death), siRNA D: higher = protection from cisplatin killing
- Call rule: 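siRNAs harmful alone (LDH or WST-1) get 0; others get +1 for less and -1 for more cisplatin killing; genes are active when the two siRNAs give the same sign, summing to ±2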
- Meaning of the calls: active = both siRNAs shift cisplatin killing the same way; inactive = no consistent shift, or siRNA harmful alone

| Target gene | two-siRNA summed score (-2 to +2) | mean protection from cisplatin (shift in death) (%) | protection from cisplatin (shift in death), siRNA C (%) | protection from cisplatin (shift in death), siRNA D (%) |
| --- | --- | --- | --- | --- |
| KCNQ1 (potassium voltage-gated channel subfamily Q member 1) | 0 | 2.4 | -4.4 | 9.3 |
| WRNIP1 (WRN helicase interacting protein 1) | 0 | -0.1 | -4.8 | 4.6 |
| WFDC6 (WAP four-disulfide core domain 6) | 0 | 4.1 | -6.3 | 14.5 |
| DHFR (dihydrofolate reductase) | 0 | -12.5 | -4 | -20.9 |
| DHFR2 (dihydrofolate reductase 2) | -1 | -1.6 | 10.7 | -13.9 |
| RBM15 (RNA binding motif protein 15) | 0 | -6.5 | -9.8 | -3.2 |
| TBC1D1 (TBC1 domain family member 1) | -1 | -7.4 | -16.3 | 1.4 |
| EPHA2 (EPH receptor A2) | 0 | 1.4 | -4.3 | 7 |
| IMPA2 (inositol monophosphatase 2) | 0 | 4.8 | -4.9 | 14.4 |
| LOC389182 | 0 | 3.5 | 0.5 | 6.6 |
| DNM1P28 (dynamin 1 pseudogene 28) | 2 (active) | 18.7 | 7.9 | 29.5 |
| TSPYL2 (TSPY like 2) | 0 | -1.2 | -12 | 9.6 |
| LOC441153 | 1 | 22.3 | 20.9 | 23.7 |
| IDE (insulin degrading enzyme) | 0 | -0.6 | -4.2 | 3 |
| MUC17 (mucin 17, cell surface associated) | 0 | -4.2 | -7 | -1.4 |
| CLK2 (CDC like kinase 2) | 0 | 9.1 | 6.3 | 12 |
| COX16 (cytochrome c oxidase assembly factor COX16) | 0 | 2.3 | 2.2 | 2.3 |
| PLCB1 (phospholipase C beta 1) | 0 | -32 | -13.2 | -50.7 |
| LOC440112 | 0 | 20.7 | 25.7 | 15.6 |
| TIMM8B (translocase of inner mitochondrial membrane 8 homolog B) | -1 | -8.2 | 20.3 | -36.6 |
| ASTILCS | 0 | 22.3 | 18.8 | 25.8 |
| H2BC8 (H2B clustered histone 8) | 0 | 14 | 22.9 | 5.1 |
| C1QL1 (complement C1q like 1) | 0 | 7.7 | 8.6 | 6.8 |
| OR52N5 (olfactory receptor family 52 subfamily N member 5) | 0 | 4.1 | 5.3 | 2.9 |
| SETD6 (SET domain containing 6, protein lysine methyltransferase) | 0 | -7.2 | 3 | -17.4 |
| ATF4 (activating transcription factor 4) | 1 | 33.8 | 57 | 10.6 |
| OR6F1 (olfactory receptor family 6 subfamily F member 1) | 0 | 7 | 11.4 | 2.6 |
| SLC6A2 | 0 | 11.9 | 15.5 | 8.3 |
| DHDDS (dehydrodolichyl diphosphate synthase subunit) | 1 | 22.4 | 8.9 | 35.9 |
| MYCBP2 (MYC binding protein 2) | -1 | -17.9 | 2.6 | -38.3 |

9 of these entries in another layout.
Target gene | two-siRNA summed score (-2 to +2) | mean protection from cisplatin (shift in death) (%) | protection from cisplatin (shift in death), siRNA C (%) | protection from cisplatin (shift in death), siRNA D (%)
ASTILCS | 0 | 22.3 | 18.8 | 25.8
H2BC8 (H2B clustered histone 8) | 0 | 14 | 22.9 | 5.1
C1QL1 (complement C1q like 1) | 0 | 7.7 | 8.6 | 6.8
OR52N5 (olfactory receptor family 52 subfamily N member 5) | 0 | 4.1 | 5.3 | 2.9
SETD6 (SET domain containing 6, protein lysine methyltransferase) | 0 | -7.2 | 3 | -17.4
ATF4 (activating transcription factor 4) | 1 | 33.8 | 57 | 10.6
OR6F1 (olfactory receptor family 6 subfamily F member 1) | 0 | 7 | 11.4 | 2.6
SLC6A2 | 0 | 11.9 | 15.5 | 8.3
DHDDS (dehydrodolichyl diphosphate synthase subunit) | 1 | 22.4 | 8.9 | 35.9

Additional results:
| Target gene | two-siRNA summed score (-2 to +2) | mean protection from cisplatin (shift in death) (%) | protection from cisplatin (shift in death), siRNA C (%) | protection from cisplatin (shift in death), siRNA D (%) |
| --- | --- | --- | --- | --- |
| SYTL5 (synaptotagmin like 5) | 0 | -16.8 | -9.8 | -23.8 |
| RNF217 (ring finger protein 217) | 1 | 10.5 | 20.6 | 0.4 |
| NRM (nurim) | 0 | 10.9 | 20.2 | 1.6 |
| LOC441060 | 0 | 4.7 | 6.7 | 2.7 |
| OR8D1 (olfactory receptor family 8 subfamily D member 1) | 0 | -4.9 | -3.1 | -6.6 |
| LOC442573 | 1 | 21.7 | 18.3 | 25.1 |
| CEP97 (centrosomal protein 97) | 1 | -2.1 | -16.7 | 12.5 |
| SSX2 (SSX family member 2) | -1 | -7.5 | 6 | -21 |
| FUBP1 (far upstream element binding protein 1) | -1 | -14.2 | -4.6 | -23.8 |
| PRSS51 (serine protease 51) | 0 | -9 | -9.2 | -8.8 |
| OR7D2 (olfactory receptor family 7 subfamily D member 2) | 1 | 8.3 | 0.4 | 16.1 |
| DMRTA2 (DMRT like family A2) | 0 | 4.1 | 9.5 | -1.2 |
| STIM1 (stromal interaction molecule 1) | 1 | 16.3 | 24.7 | 7.9 |
| BNIP3L (BCL2 interacting protein 3 like) | 0 | -0.3 | -0.9 | 0.3 |
| ZNF568 (zinc finger protein 568) | 0 | 4.2 | 5.2 | 3.3 |
| RUSC2 (RUN and SH3 domain containing 2) | 0 | 10.4 | 4.4 | 16.5 |
| AMH (anti-Mullerian hormone) | 0 | -3.7 | 1.8 | -9.1 |
| MATCAP2 (microtubule associated tyrosine carboxypeptidase 2) | 0 | 6.5 | 0.4 | 12.7 |
| ZFY (zinc finger protein Y-linked) | 1 | 8.3 | 1.2 | 15.3 |
| APOBEC4 | 1 | 8.8 | 3.8 | 13.8 |
| LOC388491 | 1 | 10 | -2 | 21.9 |
| TMOD1 (tropomodulin 1) | 0 | 0.2 | -6.3 | 6.6 |
| DYDC1 (DPY30 domain containing 1) | 0 | 11.1 | 9.6 | 12.7 |
| MRPL48 (mitochondrial ribosomal protein L48) | 0 | 9 | -4.7 | 22.7 |
| KIAA1272 | 0 | 7.6 | 5.8 | 9.5 |
| PPARG (peroxisome proliferator activated receptor gamma) | 0 | -6.8 | -11.7 | -1.9 |
| FLJ40343 | 0 | -4.5 | -7.9 | -1.2 |
| RAB1C (RAB1C, member RAS oncogene family (pseudogene)) | 0 | -17.6 | -6.4 | -28.8 |
| MGC35440 | 0 | -5.3 | 0.2 | -10.7 |
| PIK3R6 (phosphoinositide-3-kinase regulatory subunit 6) | 0 | -3.1 | -3 | -3.3 |
| LOC401351 | 0 | 12.5 | 6.4 | 18.5 |
| SUSD2 (sushi domain containing 2) | -1 | -9.5 | -19.3 | 0.3 |
| FRRS1L (ferric chelate reductase 1 like) | 0 | 6 | 7.8 | 4.3 |
| HUS1B (HUS1 checkpoint clamp component B) | 0 | 6.8 | -3.6 | 17.3 |
| CD53 (CD53 molecule) | 0 | -1.8 | -9.5 | 5.9 |
| ANGPTL1 (angiopoietin like 1) | 0 | 2.4 | 20.6 | -15.8 |
| CACNA2D1 | 0 | -11.6 | 7.4 | -30.6 |
| LRRTM2 (leucine rich repeat transmembrane neuronal 2) | 0 | 2 | -2.7 | 6.8 |
| OR8B4 (olfactory receptor family 8 subfamily B member 4) | 0 | 6.4 | 12.1 | 0.7 |
| CARHSP1 (calcium regulated heat stable protein 1) | 0 | -8.5 | -7.7 | -9.3 |
| PDLIM7 (PDZ and LIM domain 7) | 0 | -2 | 6.5 | -10.4 |
| LOC401182 | 0 | -2.5 | -10.4 | 5.4 |
| ZNF69 (zinc finger protein 69) | 0 | -5.4 | -17.6 | 6.7 |
